Reference: PMC10474270
Results are given in words; binding and its absence hold for the method and conditions named. Binding seen in cells or lysates may run through a third protein. Some results given as binding are weak or reduced against the parent protein; the word gives no strength.

By UniProt entry, the sequences of proteins in these tests, tags left out. Where a name states a change or a piece, a line headed by the entry shows the natural chain unless it says otherwise.
UniProt B2RWS6: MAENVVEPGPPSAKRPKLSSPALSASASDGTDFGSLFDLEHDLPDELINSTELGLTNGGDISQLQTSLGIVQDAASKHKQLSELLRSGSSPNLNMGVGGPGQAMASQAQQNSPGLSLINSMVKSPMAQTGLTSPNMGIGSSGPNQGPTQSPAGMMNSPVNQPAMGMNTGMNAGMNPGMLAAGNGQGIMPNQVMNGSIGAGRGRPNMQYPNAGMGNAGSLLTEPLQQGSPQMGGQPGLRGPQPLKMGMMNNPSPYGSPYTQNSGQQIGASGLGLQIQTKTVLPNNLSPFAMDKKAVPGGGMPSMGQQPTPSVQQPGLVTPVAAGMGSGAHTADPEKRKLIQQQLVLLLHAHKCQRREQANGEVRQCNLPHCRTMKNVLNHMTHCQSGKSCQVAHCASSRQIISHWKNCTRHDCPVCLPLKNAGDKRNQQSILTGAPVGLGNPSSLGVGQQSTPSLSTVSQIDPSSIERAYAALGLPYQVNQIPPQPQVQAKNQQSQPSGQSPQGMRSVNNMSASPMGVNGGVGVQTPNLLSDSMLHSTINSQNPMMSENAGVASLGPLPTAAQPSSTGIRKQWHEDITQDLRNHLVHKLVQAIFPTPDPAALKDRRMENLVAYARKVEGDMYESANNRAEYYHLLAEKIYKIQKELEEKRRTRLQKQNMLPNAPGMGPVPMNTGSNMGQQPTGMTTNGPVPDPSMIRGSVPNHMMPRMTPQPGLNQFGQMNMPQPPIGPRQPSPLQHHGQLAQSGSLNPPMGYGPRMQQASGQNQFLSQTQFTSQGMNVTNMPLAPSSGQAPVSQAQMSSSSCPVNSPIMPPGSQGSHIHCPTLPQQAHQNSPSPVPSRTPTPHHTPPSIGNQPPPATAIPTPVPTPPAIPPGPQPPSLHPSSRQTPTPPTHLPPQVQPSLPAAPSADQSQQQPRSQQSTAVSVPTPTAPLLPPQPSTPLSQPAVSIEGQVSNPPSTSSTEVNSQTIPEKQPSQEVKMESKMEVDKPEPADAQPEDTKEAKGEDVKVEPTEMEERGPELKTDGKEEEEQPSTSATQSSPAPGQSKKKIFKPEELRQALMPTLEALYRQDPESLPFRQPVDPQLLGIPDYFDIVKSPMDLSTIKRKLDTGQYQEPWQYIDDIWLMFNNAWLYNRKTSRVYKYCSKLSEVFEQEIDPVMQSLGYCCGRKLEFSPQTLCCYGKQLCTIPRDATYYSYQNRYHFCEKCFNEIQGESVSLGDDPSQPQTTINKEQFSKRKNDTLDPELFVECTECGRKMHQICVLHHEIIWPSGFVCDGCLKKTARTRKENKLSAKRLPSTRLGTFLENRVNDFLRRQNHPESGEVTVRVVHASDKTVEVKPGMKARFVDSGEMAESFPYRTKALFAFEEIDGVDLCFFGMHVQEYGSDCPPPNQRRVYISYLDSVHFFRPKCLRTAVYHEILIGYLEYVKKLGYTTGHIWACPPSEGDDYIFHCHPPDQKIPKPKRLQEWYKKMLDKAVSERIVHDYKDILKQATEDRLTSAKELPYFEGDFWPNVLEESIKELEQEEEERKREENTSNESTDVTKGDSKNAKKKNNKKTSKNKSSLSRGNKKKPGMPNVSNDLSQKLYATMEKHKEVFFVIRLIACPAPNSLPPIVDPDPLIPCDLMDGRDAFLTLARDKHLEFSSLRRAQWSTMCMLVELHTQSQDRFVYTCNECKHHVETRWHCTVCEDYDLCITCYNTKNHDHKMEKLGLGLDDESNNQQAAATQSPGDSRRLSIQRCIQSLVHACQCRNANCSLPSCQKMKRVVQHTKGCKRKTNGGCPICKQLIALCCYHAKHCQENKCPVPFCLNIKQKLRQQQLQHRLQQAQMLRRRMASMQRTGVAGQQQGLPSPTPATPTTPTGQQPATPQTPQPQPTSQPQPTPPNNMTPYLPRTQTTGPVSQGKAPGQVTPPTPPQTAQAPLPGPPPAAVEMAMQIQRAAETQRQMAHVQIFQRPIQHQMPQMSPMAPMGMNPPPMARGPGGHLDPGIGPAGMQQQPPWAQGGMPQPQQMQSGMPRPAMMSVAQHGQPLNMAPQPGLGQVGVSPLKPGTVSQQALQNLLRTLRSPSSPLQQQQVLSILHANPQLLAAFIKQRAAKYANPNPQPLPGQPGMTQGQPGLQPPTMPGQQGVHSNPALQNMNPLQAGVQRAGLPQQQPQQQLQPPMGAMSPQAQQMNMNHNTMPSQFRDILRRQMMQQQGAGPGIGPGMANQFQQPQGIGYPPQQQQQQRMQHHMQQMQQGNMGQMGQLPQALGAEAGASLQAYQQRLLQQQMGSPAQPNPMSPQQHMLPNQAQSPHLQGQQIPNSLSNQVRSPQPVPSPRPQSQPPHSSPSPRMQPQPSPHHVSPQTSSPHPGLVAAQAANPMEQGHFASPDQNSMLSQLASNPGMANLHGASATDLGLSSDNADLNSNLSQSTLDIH
UniProt Q02566: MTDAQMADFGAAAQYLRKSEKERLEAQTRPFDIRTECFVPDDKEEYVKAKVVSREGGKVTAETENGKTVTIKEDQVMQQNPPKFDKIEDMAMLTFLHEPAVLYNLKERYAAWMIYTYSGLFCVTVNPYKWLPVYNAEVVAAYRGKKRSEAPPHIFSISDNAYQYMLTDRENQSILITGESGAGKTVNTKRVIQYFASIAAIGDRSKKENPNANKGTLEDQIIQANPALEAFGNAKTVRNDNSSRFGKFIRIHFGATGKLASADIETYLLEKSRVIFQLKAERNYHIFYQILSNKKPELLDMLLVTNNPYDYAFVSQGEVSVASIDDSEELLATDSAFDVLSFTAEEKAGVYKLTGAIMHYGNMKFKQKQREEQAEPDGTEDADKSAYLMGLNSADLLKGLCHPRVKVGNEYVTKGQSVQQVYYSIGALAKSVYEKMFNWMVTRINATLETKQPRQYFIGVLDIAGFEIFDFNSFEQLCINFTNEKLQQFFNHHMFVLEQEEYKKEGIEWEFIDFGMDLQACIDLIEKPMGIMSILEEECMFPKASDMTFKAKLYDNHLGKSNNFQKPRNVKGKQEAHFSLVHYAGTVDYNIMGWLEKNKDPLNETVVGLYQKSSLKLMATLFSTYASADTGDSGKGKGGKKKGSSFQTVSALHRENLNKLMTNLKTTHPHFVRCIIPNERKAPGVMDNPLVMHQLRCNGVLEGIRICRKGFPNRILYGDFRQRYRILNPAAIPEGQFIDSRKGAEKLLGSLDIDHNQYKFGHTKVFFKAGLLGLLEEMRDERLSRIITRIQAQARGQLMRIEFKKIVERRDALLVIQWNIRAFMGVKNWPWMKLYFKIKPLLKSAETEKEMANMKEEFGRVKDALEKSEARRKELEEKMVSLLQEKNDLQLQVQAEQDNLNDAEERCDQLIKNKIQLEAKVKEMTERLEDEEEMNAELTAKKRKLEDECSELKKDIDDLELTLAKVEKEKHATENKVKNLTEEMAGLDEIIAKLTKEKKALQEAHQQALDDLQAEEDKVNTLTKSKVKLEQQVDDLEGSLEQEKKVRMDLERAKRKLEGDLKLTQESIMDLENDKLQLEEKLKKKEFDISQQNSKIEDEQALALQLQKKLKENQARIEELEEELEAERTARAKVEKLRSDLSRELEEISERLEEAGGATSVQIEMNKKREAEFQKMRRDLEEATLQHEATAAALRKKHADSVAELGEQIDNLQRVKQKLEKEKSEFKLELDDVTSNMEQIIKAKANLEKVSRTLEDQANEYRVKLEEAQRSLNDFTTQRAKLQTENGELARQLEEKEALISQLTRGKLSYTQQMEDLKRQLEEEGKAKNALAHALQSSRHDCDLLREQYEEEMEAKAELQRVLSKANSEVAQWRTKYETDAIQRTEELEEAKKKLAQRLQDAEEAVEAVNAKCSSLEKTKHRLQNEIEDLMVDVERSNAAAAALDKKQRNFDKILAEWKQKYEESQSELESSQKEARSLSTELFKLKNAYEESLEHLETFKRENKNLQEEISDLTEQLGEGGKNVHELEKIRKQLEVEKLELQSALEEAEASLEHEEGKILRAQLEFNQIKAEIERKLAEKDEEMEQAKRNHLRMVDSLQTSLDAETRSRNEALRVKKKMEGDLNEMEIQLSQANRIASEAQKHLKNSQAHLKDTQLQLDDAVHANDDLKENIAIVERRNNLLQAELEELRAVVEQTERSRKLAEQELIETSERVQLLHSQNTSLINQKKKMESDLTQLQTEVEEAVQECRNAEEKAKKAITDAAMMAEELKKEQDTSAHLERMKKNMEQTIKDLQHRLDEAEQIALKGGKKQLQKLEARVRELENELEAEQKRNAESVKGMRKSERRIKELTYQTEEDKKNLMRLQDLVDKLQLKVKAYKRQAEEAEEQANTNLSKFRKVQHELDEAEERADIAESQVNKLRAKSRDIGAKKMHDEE
UniProt P02563: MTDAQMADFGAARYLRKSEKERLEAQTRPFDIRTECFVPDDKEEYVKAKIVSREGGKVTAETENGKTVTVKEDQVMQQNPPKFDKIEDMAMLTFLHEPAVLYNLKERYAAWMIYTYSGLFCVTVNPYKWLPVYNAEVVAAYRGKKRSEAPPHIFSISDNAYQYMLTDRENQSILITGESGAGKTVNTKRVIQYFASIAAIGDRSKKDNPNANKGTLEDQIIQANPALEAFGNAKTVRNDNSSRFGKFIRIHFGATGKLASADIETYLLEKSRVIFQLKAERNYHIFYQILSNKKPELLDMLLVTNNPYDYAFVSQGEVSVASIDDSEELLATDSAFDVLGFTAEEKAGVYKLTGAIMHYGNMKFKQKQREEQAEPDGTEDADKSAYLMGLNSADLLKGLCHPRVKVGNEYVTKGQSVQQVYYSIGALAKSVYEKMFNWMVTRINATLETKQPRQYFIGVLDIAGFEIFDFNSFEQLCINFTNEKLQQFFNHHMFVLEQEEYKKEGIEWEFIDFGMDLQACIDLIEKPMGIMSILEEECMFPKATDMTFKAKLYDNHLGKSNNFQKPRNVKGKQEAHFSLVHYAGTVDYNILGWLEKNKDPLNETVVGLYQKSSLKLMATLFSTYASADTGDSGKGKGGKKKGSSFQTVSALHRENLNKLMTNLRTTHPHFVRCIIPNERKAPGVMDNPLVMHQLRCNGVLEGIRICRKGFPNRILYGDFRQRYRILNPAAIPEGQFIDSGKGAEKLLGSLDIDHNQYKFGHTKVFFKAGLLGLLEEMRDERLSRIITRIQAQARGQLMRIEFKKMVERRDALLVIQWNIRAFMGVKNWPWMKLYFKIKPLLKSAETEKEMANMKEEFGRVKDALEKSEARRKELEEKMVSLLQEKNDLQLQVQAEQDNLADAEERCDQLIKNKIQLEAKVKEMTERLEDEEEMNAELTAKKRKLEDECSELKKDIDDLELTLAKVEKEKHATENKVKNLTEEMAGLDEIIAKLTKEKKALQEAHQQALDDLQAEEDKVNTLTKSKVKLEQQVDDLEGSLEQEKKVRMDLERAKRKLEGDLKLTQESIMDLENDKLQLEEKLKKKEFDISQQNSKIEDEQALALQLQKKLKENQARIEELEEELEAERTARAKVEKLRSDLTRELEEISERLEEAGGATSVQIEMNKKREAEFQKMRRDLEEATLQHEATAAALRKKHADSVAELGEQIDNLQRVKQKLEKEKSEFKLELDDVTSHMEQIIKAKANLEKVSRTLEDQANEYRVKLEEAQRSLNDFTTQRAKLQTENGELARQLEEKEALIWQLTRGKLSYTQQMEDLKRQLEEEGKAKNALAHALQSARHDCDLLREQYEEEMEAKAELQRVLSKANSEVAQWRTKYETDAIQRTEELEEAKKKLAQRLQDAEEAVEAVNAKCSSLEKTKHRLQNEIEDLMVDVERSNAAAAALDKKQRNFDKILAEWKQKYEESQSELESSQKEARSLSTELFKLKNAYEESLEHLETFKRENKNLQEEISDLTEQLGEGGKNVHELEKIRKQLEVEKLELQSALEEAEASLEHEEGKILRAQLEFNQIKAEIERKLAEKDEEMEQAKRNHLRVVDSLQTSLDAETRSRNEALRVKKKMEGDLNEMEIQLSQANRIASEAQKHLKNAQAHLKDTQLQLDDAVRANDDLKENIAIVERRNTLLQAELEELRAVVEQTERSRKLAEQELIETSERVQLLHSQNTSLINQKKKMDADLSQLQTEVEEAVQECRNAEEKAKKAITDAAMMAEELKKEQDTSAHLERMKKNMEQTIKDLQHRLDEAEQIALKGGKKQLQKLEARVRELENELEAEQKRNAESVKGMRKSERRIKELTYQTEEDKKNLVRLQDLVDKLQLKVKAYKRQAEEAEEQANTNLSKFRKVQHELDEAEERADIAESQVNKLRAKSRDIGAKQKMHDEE

Key:
[1] = molecular target: Titin, endogenous in mouse myocardial tissue (mouse (endogenous in myocardial tissue)) (UniProt A2ASS6); assay: co-IP; mouse myocardial tissue lysate, anti-Titin antibody or control IgG on Protein A/G magnetic beads, blot for α-MHC; WT and α-MHC K1897R KI or LDHA-cKO mice; treatments: Ang II, p300 inhibitor or activator, SIRT1 activator or inhibitor, LDHA inhibitor, NALA, VB124
[2] = molecular target: p300 (E1A binding protein, 300 kDa), endogenous in mouse myocardial tissue (mouse (endogenous in myocardial tissue)) (UniProt B2RWS6); assay: co-IP; mouse myocardial tissue lysate, anti-p300 antibody or control IgG, blot for α-MHC; with or without Ang II
[3] = molecular target: T1, Sirtuin 1 (SIRT1), endogenous in mouse myocardial tissue (mouse (endogenous in myocardial tissue)) (UniProt Q923E4); assay: co-IP; mouse myocardial tissue lysate, anti-SIRT1 antibody or control IgG, blot for α-MHC; with or without Ang II
T1 sequence: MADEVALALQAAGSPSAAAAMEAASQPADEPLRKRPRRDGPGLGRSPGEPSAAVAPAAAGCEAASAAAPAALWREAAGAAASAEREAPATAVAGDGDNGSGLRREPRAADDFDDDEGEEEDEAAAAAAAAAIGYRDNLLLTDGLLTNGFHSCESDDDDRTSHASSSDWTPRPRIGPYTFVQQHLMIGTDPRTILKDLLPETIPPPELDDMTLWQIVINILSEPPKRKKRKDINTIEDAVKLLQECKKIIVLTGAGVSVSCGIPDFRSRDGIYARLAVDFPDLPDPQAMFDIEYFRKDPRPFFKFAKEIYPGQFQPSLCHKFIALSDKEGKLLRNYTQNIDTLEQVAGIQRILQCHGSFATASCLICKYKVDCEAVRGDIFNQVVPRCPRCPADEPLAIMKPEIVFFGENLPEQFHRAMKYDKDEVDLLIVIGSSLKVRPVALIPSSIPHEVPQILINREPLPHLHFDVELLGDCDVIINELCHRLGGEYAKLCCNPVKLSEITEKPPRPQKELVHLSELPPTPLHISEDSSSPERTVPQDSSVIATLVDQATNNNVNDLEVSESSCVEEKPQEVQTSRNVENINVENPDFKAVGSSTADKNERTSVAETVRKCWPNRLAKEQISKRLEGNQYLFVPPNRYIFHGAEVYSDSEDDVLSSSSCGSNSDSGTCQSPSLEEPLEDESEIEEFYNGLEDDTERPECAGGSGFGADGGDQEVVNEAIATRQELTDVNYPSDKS

[4] = molecular target: T2, SIRT1, endogenous in H9c2 cells (rat (endogenous in H9c2)); assay: co-IP; H9c2 cell lysate, anti-SIRT1 antibody or control IgG, blot for α-MHC; with or without Ang II
T2 sequence: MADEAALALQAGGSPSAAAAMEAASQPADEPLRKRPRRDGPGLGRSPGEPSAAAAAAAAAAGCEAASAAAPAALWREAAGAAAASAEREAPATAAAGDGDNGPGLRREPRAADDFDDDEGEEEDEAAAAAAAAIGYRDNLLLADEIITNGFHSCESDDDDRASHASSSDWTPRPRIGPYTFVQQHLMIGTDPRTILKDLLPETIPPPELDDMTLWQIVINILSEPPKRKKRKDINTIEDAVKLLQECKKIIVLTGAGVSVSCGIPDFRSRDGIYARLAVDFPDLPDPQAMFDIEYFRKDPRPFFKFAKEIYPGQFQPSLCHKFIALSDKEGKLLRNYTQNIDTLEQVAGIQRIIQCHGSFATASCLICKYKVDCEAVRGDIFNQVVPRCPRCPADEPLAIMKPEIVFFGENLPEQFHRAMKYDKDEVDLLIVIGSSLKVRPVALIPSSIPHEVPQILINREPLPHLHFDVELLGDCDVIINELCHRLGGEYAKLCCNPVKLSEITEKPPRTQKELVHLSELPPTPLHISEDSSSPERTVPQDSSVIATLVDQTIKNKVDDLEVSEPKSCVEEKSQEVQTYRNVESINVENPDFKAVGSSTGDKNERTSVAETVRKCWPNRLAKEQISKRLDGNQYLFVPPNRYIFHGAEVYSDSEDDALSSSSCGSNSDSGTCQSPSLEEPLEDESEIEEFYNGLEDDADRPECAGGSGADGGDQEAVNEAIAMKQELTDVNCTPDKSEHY

binding [1] | binding [2] | binding [3] | binding [4] | Substance
binds | binds | binds |  | α-myosin heavy chain (α-MHC), wild type, endogenous in mouse myocardial tissue (from UniProt Q02566 1-1938)
binds |  |  |  | α-MHC K1897R, endogenous in myocardial tissue of α-MHC K1897R knock-in mice (from UniProt Q02566 1-1938)
 |  |  | binds | α-MHC, endogenous in H9c2 cells (from UniProt P02563 1-1938)
